Experimental data reported in PubChem BioAssay AID493014 (National Center for Advancing Translational Sciences (NCATS), 2011).
The whole screen tested about 340,000 compounds, of which about 170 (0.05%) were called active. Inconclusive results, whose numbers are uncertain, are shown with a selection of clear calls. Calls follow the shape of the dose curve; as a rule, active = well fitted inhibition curve with a large enough effect in the signal ratio, with a control signal flat (not every such curve was filed as active); inconclusive = small, poorly fitted or top-dose-only effect, or effect the other way, or a change in a side signal; inactive = flat fitted curve, though single readings scatter; the % refers to the signal ratio. Where the call is inconclusive, the potency comes from a doubtful curve fit.
Potency is read from the fitted curve at half-maximal effect.

Assay: qHTS Assay to Find Inhibitors of Chronic Active B-Cell Receptor Signaling;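 as to activity change, negative = inhibition: plate controls were basal doxycycline-induced cells for no effect and cells given 10 µM MG132 for full effect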
Conditions: ABC-DLBCL IkBa-CBG/CBR reporter, luminescence ratio (green luciferase fused to IkBa over red control in TMD8 lymphoma cells), 4 h; activity change, negative = inhibition: at 46.1 µM (top of the series)
Outline: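 TMD8 ABC-DLBCL cells carrying doxycycline-inducible green luciferase fused to IkappaBalpha plus unfused red luciferase were exposed to compounds (up to 46 uM) for 4 hrs at 37C. Activity came from the overlap-corrected green/red luminescence ratio.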
In the case of COc1ccc(OC)c(/C=N/Nc2nncn2/N=C/c2cc(OC)ccc2OC)c1, the Potency is reported as inconclusive: 14.6 µM [falling, partial curve, poor fit].
For CCCc1ccc(OC(=O)c2ccc(O)cc2Cl)cc1, the Potency was inconclusive: 14.1 µM [falling, partial curve].
For S=C1NCCc2ccc(Cl)cc2C1c1ccccc1 (stereo not given), the “activity change, negative = inhibition” value was inactive: -5.11%.
In the case of Cc1cc(C)c2sc(NC(=O)C3=COCCO3)nc2c1, the activity change, negative = inhibition is reported as inconclusive: 2.82%.
In the case of CC(C)CC(=O)N1CCN(S(=O)(=O)c2ccc(Cl)cc2)CC1, the “activity change, negative = inhibition” value is reported as inactive: -6.73%.
In the case of CCN(CC(=O)NCc1ccc(Cl)cc1)C(=O)c1ccc(S(=O)(=O)NCc2ccco2)cc1, the activity change, negative = inhibition is reported as inconclusive: 9.36%.
For NS(=O)(=O)c1ccc2nc(NC(=O)c3ccc4ncsc4c3)sc2c1, the Potency was inconclusive: 15.8 µM [falling, partial curve].
With COc1ccc(C(C(=O)NC2CCCC2)N(C(=O)c2snc(-c3ccc(F)cc3)c2N)c2cccc(F)c2)cc1 (stereo not given) the activity change, negative = inhibition was inconclusive: -3.01%.
In the case of Cc1ccc(-c2cc(-c3ccc(F)cc3)c(C#N)c(N)n2)o1, the activity change, negative = inhibition is reported as inconclusive: 0.962%.
For CCN(CC)CCNC(=O)c1ccc(NC(=O)c2cc(S(=O)(=O)N3CCCCC3)ccc2C)cc1, the “activity change, negative = inhibition” value was inactive: 4.81%.
With O=C(O)CC(NC(=O)Cc1ccc(Cl)cc1)c1ccco1 (stereo not given) the “activity change, negative = inhibition” value was inactive: 9.61%.
For CC(C)C(=O)Nc1ncc(Cc2ccccc2Cl)s1, the activity change, negative = inhibition was inconclusive: 8.09%.
In the case of COc1ccc(S(=O)(=O)NC(C)C(=O)Nc2ccccc2F)cc1 (stereo not given), the activity change, negative = inhibition is reported as inconclusive: 0.509%.
For CCCOC(=O)c1ccc(NC(=O)C(CC)CC)cc1, the Potency was inconclusive: 4.11 µM [rising, full curve, poor fit].
In the case of COc1ccc(-n2nc3c(c2NC(=O)CC(C)C)CS(=O)C3)cc1 (stereo not given), the “activity change, negative = inhibition” value is reported as inactive: -0.749%.
With Cc1ccc(C)c(C(=O)CN2C(=O)NC3(CCCCCC3)C2=O)c1 the activity change, negative = inhibition was inconclusive: -8.53%.
For O=C(Nc1ccccn1)c1nc(-c2ccccc2)n(-c2ccccc2)n1, the Potency was inconclusive: 6.51 µM [falling, single point].
For Cc1ccc(C(=O)NC2CCCCCC2)o1, the Potency was inconclusive: 25.9 µM [falling, single point].
For Cc1cc(Cl)c2oc(C(=O)N3CCCCC3CCN3CCCC3=O)c(C)c2c1 (stereo not given), the Potency was inconclusive: 12.6 µM [falling, single point].
In the case of C=CCN(c1ccccc1C(=O)O)S(=O)(=O)/C=C/c1ccccc1, the “activity change, negative = inhibition” value is reported as inactive: 5.01%.
In the case of O=C(c1ccc(N2CN(C(=O)c3ccco3)c3nc4ccccc4nc32)cc1)N1CCOCC1, the “activity change, negative = inhibition” value is reported as inactive: 3.56%.
In the case of Cc1ccc(COc2ccc(C)nc2[N+](=O)[O-])cc1, the activity change, negative = inhibition is reported as inconclusive: 19.5%.
In the case of CCc1ccc(OCc2ccc(C(=O)O)o2)cc1, the Potency is reported as inconclusive: 31.6 µM [falling, partial curve].
In the case of Cc1ccc(NC(=O)COC(=O)Cc2c[nH]c3ccccc23)cc1F, the Potency is reported as inconclusive: 23.1 µM [falling, partial curve].
For Cc1c(CNCCc2ccccc2)c(C(=O)O)c(C)n1-c1ccccc1, the activity change, negative = inhibition was inconclusive: -10.5%.
In the case of COc1ccc(-c2cc(C(F)(F)F)n3nc(C(=O)Nc4cc(C)on4)cc3n2)cc1OC, the activity change, negative = inhibition is reported as inconclusive: 0.341%.
With Cc1ccc(OCc2ccc(C(=O)O)o2)c([N+](=O)[O-])c1 the Potency was inconclusive: 18.4 µM [falling, single point].
With CC(C)c1ccc(NC(=O)NCc2ccc(F)cc2)cc1 the activity change, negative = inhibition was inconclusive: 2.25%.
In the case of Cc1ccc(S(=O)(=O)CCC(=O)O)cc1C, the activity change, negative = inhibition is reported as inconclusive: 19.2%.
In the case of COc1cc2c(cc1OC)/C(=C/c1ccc(Cl)cc1)C(=O)OC2, the Potency is reported as inconclusive: 32.6 µM [falling, partial curve, poor fit].
For COc1ccc(OCc2cccc(C(=O)Nc3cc(C)on3)c2)cc1, the Potency was inconclusive: 18.4 µM [falling, partial curve].
In the case of COc1cc(CC(=O)Nc2sc3c(c2C(N)=O)CCCC3)cc(OC)c1OC, the activity change, negative = inhibition is reported as inconclusive: -13.5%.
With COc1ccc(-c2nn(-c3ccccc3)cc2/C=N/Nc2ccc3ccccc3n2)cc1OC the “activity change, negative = inhibition” value was inactive: -12.5%.
With O=C(O)CCn1cc(-c2ccc(Cl)cc2)nc1-c1ccncc1 the activity change, negative = inhibition was inconclusive: 3.74%.
For S=c1nc(-c2ccccc2)[nH]c2ccccc12, the Potency was inconclusive: 35.5 µM [falling, single point].
For O=[N+]([O-])c1cccc(Cl)c1NCCNS(=O)(=O)c1ccccc1, the activity change, negative = inhibition was inconclusive: 4.97%.
For Cc1nc2ccccc2c(=O)n1NCc1cccs1, the activity change, negative = inhibition was inconclusive: 11.4%.
In the case of Fc1cccc(/C=N/Nc2nncc3ccccc23)c1, the Potency is reported as inconclusive: 7.94 µM [falling, partial curve].
For Cc1ccc(CNC(=O)CCS(=O)(=O)c2cc(Br)cc3c2N(C(=O)C2CC2)CC3)o1, the “activity change, negative = inhibition” value was inactive: 1.39%.
For CSc1ncccc1C(=O)NCC1CCCCC1, the activity change, negative = inhibition was inconclusive: 1.88%.
